Results are given in words; binding and its absence hold for the method and conditions named. Binding seen in cells or lysates may run through a third protein. A result given as binding can be weak or reduced; the word gives no strength. Sequences can lack the tags named with a protein.

This experiment concerns the target T1, FLAG-Cyk4 (human) (UniProt Q9H0H5).
T1 sequence: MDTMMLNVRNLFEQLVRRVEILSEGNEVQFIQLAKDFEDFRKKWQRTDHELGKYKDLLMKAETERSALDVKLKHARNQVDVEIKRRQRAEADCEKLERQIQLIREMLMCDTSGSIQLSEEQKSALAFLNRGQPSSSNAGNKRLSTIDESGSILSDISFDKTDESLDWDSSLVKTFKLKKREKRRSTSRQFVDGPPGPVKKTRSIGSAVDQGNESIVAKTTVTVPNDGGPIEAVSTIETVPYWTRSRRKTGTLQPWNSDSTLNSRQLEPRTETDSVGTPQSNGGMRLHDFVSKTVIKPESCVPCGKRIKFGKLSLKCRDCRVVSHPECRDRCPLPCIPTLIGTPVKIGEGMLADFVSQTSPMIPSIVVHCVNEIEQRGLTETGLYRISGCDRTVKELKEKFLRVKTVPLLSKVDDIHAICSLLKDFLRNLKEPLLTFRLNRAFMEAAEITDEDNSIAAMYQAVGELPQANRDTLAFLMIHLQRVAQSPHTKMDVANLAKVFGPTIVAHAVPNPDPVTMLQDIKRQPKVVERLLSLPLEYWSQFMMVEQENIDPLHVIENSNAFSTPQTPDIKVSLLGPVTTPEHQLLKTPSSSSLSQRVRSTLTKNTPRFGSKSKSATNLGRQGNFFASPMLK
Briefly: co-IP; HeLa transfected with FLAG-Cyk4 and V5-CIP2A, arrested with 100 μM monastrol, solvent control, collected 0–90 min after removal of monastrol; anti-FLAG IP, PP2Ac blotted.

Take “PP2Ac (PP2A catalytic C-subunit), endogenous (from UniProt P67775)”: the binding entry is given as “binds”.

Values taken from article PMC5586252, “PP2A-B′ holoenzyme substrate recognition, regulation and role in cytokinesis” (Cell Discovery, 2017).
